Assay results: US8304442B2, “Compounds having immunomodulator activity” (Ganial Immunotherapeutics, Inc., priority 2005, dated 2012)
For at least one compound, name, drawing or mass did not settle the structure.

System: oxazolone-induced hypersensitivity
Experiment: Oxazolone-induced dermatitis
Type: in vivo, mice
[1] = elicitation phase: treated one hour after second exposure to oxazolone
[2] = treated during or before the sensitization phase

## C[C@@H]1C[C@H]2[C@@H]3CCC4=CC(=O)C=C[C@]4(C)[C@@]3(F)[C@@H](O)C[C@]2(C)[C@@]1(O)C(=O)CO [dexamethasone, reference compound]
[1]
  ear thickness: did not affect
  ear weight: did not affect
[2]
  increment of ear thickness: reduced the thickness
  increment of ear weight: not the weight
